In article PMC10433927:

What was measured:
[1] = molecular target: UmSee1-TurboID-3HA (Ustilago maydis); test: affinity purification with mass spectrometry; anti-HA magnetic beads on native extracts of maize leaves 3 dpi with U. maydis secreting UmSee1-TurboID-3HA; control mCherry-TurboID-3HA; 4 °C, 3 h; on-bead digestion, LC-MS/MS, label-free quantification
[2] = molecular target: UmSee1-TurboID-3HA (Ustilago maydis); test: as above; remark: listed apart in the source

ZmSIP2 (Zea mays See1-interacting protein 2), endogenous (from UniProt A0A1D6G9Q0)
binding [1]: binds

B1: ZmSGT1 (maize suppressor of G2 allele of skp1), endogenous (protein, UniProt A0A3L6DPG1 1-361)
chain: MAASDLESKAKEAFVDDDFELAAELYTQAIDAGPATADLYADRAQAHIKLGNYTEAVADANKAIGLDPTMHKAYYRKGAACIKLEEYQTAKAALELGSSYAPGDSRFTRLLKECDECIAEESSQAPAKNVEAPVAATVEDKEDVANMDNTPPVVEPPSKPKYRHDYYNSATEVVLTIYAKGVPADSVVIDFGDQMLSVSIEVPGEEPYHFQPRLFSKIIPEKCKYQVLSTKVEIRLAKAEQVTWTTLDYSGRPKAIPQKISTPAETAPRPSYPSSKSKKDWDKLEAEVKKEEKEEKLEGDAALNKFFRDIYKDADEDMRRAMDKSFRESNGTVLSTNWKDVGSKTVEASPPDGMELKKWEI
binding [2]: binds

Like-named read-outs stand apart in the source and are kept apart here. These are yes or no findings as the source states them, for the method shown. In cells and extracts the contact can be indirect. A yes stands for co-enrichment or nearness to the bait. Other partners may have been found.
